Laboratory results from doi:10.1101/2025.05.28.656718.
No constants are given. Whether binding was seen depends on the method and setting. In cells and extracts the contact can be indirect. Some results given as binding are weak or reduced against the parent protein; the word gives no strength. For some of these results: Sequences can lack the tags named with a protein. Values belong to the substance of their own block, whether it stands above or below them.

Chains of the proteins cited; added tags and fusions are not shown. Lines headed by an entry give the natural chain unless they say otherwise; changes in a name come on top. A line that says so, or that is headed by a name, gives the form on record, which may keep a tag or linker.
Endogenous PKM1 (mouse dorsal root ganglia) (P52480-2, form named): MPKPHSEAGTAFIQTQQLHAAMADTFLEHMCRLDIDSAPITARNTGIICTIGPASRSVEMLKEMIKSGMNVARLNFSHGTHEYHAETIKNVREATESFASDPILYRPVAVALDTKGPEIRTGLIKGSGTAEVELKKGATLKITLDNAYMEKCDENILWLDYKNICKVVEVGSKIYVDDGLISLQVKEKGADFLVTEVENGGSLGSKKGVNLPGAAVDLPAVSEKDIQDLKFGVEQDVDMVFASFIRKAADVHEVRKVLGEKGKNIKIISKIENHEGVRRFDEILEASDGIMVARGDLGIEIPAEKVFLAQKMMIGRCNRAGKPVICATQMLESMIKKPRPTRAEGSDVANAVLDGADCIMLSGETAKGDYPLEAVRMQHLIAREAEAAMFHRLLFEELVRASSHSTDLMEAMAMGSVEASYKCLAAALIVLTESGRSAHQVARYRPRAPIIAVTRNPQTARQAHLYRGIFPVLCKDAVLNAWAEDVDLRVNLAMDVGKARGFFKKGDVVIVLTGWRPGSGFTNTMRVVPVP
HaloTag-N58-PKM1-FLAG (P14618-2, form named): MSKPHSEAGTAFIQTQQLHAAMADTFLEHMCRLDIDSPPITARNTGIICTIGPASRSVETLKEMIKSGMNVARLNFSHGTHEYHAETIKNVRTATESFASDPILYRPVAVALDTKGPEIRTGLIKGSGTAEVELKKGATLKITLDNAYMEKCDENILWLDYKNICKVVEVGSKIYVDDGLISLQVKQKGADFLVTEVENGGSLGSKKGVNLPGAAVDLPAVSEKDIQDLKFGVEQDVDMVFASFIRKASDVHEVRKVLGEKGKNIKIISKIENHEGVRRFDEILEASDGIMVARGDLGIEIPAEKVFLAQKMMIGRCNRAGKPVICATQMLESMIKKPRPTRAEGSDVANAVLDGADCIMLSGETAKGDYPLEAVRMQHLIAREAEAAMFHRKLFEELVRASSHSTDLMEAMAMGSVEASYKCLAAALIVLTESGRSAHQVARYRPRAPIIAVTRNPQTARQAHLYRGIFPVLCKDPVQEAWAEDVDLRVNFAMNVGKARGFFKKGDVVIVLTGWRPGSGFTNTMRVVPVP
UniProt P05412: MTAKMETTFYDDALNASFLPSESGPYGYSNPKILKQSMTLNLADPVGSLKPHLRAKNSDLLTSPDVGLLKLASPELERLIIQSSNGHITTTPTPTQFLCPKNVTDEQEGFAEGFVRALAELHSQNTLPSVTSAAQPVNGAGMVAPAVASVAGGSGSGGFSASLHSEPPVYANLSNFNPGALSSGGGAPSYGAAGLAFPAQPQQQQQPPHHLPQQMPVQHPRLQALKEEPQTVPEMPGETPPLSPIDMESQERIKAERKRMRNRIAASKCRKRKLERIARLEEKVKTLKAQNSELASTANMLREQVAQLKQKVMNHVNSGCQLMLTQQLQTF

Experiments:
SARM1-HA (human) = molecular target: T1, SARM1-HA (human) (UniProt Q6SZW1); test: co-IP
T1 sequence: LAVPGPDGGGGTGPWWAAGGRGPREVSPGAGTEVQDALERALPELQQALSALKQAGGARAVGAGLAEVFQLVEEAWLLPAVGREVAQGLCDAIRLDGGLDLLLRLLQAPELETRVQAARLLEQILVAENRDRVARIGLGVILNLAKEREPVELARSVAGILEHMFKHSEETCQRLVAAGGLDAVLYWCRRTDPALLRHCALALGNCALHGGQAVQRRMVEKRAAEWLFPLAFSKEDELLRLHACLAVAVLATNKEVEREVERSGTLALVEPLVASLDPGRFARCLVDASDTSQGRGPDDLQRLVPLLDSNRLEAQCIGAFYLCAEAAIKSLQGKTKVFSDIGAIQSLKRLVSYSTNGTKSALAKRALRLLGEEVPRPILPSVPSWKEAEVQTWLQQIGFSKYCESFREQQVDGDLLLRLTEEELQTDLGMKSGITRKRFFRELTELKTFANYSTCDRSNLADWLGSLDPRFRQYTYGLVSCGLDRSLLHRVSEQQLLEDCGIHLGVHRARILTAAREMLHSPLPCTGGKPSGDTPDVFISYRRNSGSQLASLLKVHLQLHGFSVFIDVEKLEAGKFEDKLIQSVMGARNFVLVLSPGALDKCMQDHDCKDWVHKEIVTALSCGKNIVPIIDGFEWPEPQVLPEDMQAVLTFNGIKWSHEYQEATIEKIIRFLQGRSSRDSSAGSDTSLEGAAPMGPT

[1] = molecular target: T2, Endogenous SARM1 (mouse dorsal root ganglia) (mouse (endogenous in DRG)) (UniProt Q6PDS3); test: co-IP
T2 sequence: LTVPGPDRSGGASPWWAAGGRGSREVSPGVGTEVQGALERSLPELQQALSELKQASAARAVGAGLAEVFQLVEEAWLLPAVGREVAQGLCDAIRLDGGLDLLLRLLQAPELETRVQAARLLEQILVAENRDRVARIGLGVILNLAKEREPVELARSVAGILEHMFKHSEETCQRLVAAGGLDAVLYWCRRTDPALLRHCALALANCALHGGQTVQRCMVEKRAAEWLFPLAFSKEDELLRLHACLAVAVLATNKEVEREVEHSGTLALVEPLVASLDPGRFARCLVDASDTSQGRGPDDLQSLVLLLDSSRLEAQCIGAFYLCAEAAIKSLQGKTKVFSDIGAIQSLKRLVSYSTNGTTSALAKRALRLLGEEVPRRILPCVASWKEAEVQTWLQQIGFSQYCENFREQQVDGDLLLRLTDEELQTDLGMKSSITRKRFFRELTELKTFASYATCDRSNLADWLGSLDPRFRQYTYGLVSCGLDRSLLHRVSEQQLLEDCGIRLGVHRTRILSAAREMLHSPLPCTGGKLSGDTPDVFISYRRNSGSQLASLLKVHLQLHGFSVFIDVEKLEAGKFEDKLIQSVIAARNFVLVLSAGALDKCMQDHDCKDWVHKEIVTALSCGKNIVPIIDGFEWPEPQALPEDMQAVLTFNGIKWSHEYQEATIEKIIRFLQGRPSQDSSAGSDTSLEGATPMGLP

[2] = molecular target: T3, SARM1 ARM-GFP (residues 28-408) (human) (UniProt Q6SZW1); test: co-IP
T3 sequence: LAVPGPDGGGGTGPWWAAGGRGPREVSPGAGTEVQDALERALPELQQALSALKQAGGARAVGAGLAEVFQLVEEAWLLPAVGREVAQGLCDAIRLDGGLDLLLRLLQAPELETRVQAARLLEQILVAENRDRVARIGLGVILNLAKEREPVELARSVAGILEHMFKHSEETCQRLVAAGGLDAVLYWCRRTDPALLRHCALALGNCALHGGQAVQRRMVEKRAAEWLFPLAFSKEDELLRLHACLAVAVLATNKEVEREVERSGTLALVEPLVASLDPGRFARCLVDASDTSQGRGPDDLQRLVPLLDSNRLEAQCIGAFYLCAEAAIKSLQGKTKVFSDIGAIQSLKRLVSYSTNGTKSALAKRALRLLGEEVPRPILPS

[3] = molecular target: T4, SARM1 ARM-SAM-GFP (residues 28-559) (human) (UniProt Q6SZW1); test: co-IP
T4 sequence: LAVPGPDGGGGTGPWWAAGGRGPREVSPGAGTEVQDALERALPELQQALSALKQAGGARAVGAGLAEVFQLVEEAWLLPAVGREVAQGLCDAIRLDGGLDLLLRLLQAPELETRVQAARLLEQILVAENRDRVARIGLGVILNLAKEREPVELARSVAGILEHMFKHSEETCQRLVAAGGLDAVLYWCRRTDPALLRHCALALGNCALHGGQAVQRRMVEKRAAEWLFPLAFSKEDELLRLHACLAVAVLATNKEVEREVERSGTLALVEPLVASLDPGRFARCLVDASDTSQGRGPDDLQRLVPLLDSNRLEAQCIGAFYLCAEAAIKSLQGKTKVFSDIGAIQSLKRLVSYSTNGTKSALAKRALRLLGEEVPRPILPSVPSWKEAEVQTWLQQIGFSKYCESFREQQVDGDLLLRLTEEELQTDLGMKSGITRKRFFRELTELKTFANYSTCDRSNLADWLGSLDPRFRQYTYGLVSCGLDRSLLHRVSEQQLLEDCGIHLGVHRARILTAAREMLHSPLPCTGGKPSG

[4] = molecular target: T5, SARM1 SAM-TIR-GFP (residues 408-724) (human) (UniProt Q6SZW1); test: co-IP
T5 sequence: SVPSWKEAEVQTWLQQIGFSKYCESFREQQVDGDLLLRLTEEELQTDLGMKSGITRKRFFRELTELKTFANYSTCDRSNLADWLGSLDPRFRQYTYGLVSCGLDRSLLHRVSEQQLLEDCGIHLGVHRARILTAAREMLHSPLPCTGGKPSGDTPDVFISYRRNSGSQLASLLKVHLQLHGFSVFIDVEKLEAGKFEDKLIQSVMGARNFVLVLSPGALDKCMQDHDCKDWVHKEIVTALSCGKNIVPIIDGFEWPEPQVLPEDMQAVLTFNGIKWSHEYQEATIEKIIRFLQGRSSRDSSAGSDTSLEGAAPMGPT

[5] = molecular target: T6, SARM1-HaloTag-C58 (human) (UniProt Q6SZW1); test: split reporter
T6 sequence: T1 sequence

Substance: Endogenous PKM1 (mouse dorsal root ganglia) (from UniProt P52480-2 1-531) (enzyme)
binding [1]: binds

Substance: HaloTag-N58-PKM1-FLAG (from UniProt P14618-2 1-531) (enzyme)
binding [5]: binds

Substance: HaloTag-N58-c-Jun (from UniProt P05412 1-331)
binding [5]: no binding

Other lines, results leading:

binding (SARM1-HA (human)): binds
Substance: Endogenous PKM1 (293T cells) (from UniProt P14618-2 1-531) (enzyme)

binding (SARM1-HA (human)): binds
Substance: Endogenous PKM1 (HT22 cells) (from UniProt P52480-2 1-531) (enzyme)

binding [2]: no binding
binding [3]: no binding
binding [4]: binds
binding (SARM1-HA (human)): binds
Substance: FLAG-PKM1, full length (residues 1-531) (from UniProt P14618-2 1-531) (enzyme)

binding (SARM1-HA (human)): binds
Substance: FLAG-PKM2, full length (residues 1-531) (from UniProt P14618-1 1-531) (enzyme)
